{
  "sequences": {"note": "Amino acid sequences for entries named in this document (tags omitted). A change or cut given only in a name is not applied to a line headed by its entry.", "UniProt P35631": "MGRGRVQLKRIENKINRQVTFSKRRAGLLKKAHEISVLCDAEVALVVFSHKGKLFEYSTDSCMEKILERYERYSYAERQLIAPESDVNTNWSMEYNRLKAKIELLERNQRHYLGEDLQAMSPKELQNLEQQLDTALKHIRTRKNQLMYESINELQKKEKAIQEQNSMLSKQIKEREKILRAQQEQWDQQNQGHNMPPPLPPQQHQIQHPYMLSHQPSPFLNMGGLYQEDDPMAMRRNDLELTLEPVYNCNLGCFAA", "UniProt O22456": "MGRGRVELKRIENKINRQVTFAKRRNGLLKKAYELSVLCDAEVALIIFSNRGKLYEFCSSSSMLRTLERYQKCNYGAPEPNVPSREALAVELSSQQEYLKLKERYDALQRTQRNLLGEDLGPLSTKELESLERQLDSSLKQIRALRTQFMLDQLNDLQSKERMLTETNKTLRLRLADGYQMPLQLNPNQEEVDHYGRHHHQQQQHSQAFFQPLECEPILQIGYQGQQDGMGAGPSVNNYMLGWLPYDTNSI"},
  "source": "paper doi:10.1101/772699",
  "key": {"[1]": {"target": "AP1 (Arabidopsis thaliana) (UniProt P35631)", "assay": "EMSA", "conditions": "protein translated in vitro"}, "[2]": {"target": "SEP3 (Arabidopsis thaliana) (UniProt O22456)", "assay": "EMSA", "conditions": "no SAP54 (BSA added); protein translated in vitro; residues 1-251"}},
  "note": "For at least one entry, the source does not settle the construct or the ends of the probe. For part of these data: At least one verdict was read from the data and is not stated in words by the source.",
  "data": [
    {"sequence": "TCGAGGTCGATAAAACGGCAAGGAGAATTATATTTTTATGATGAACATATCGACGGTATCGATAAGCTTGATGAAATTTAATTATATTCCAAATAAGGAAAGTATGGAACGTTATCGAATTCCTGCAGCCCGGGGGATCCACTAGTTCTAG (double strand) [one-CArG-box probe]", "values": [
      {"measurement": "binding result", "setting": "[1]; results similar to SEP3, SAP54 gives no supershift", "result": "binds"}
    ]},
    {"sequence": "TCGAGGTCGGAAATTTAATTATATTCCAAATAAGGAAAGTATGGAACGTTCGACGGTATCGATAAGCTTGATGAAATTTAATTATATTCCAAATAAGGAAAGTATGGAACGTTATCGAATTCCTGCAGCCCGGGGGATCCACTAGTTCTAG (double strand) [two-CArG-box probe]", "values": [
      {"measurement": "binding result", "setting": "[2]", "result": "binds"},
      {"measurement": "binding result", "setting": "[1]; no SAP54", "result": "binds"}
    ]}
  ]
}
